The shares of active, inactive and inconclusive entries below differ from those in the screen. Calls come from the whole dose curve; as a rule, active = well fitted cell-killing curve with a large enough effect; inconclusive = small, poorly fitted or top-dose-only effect, or effect the other way; inactive = no such curve, though single readings can be large or run the other way. Potencies of inconclusive entries are doubtful fits and often do not repeat.
experiment: Quantitative High-Throughput drug screen in 47 multiple myeloma cell lines against the NCATS MIPE library collection: MMM1_PLB cell viability assay (AID 1918976); conditions: MMM1 myeloma cells viability, CellTiter-Glo, 48 h; series mostly up to 45.8 µM; note: nearly all actives have a fitted effect of over 35% in size
Method in brief: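 Myeloma cells (500/well) treated with MIPE 4.0 compounds for 48 h at 37 °C, 5% CO2. Viability read as ATP via CellTiter-Glo luminescence after 5 min at RT; DMSO-only wells = 100%, media-only = 0% viability.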
Potency is the fitted concentration of half-maximal effect.

Structure (SMILES) | Potency
Clc1ccc2nsnc2c1NC1=NCCN1 | inconclusive: 29.6 nM [rising, full curve]
COc1ccnc(CS(=O)c2nc3ccc(OC(F)F)cc3[nH]2)c1OC (centres undefined) | inconclusive: 33.2 nM [rising, full curve, poor fit]
CCNC(=O)c1noc(-c2cc(C(C)C)c(O)cc2O)c1-c1ccc(CN2CCOCC2)cc1 | inconclusive: 132 nM [cytotoxic, full curve, poor fit]
CC(C)(O)[C@H]1CC[C@@](C)([C@H]2[C@@H](O)C[C@@]3(C)[C@@H]4C[C@H](O[C@@H]5O[C@H](CO)[C@@H](O)[C@H](O)[C@@H]5O)[C@H]5C(C)(C)[C@@H](O[C@@H]6OC[C@@H](O)[C@H](O)[C@@H]6O)CC[C@@]56C[C@@]46CC[C@]23C)O1 | inconclusive: 4180 nM [cytotoxic, partial curve, poor fit]
